Assay results taken from the supplement of paper PMC12819154, “High-throughput peptide-centric local stability assay extends protein–ligand identification to membrane proteins, tissues and bacteria” (Nature Structural & Molecular Biology, 2025).
The other results are listed elsewhere or left out. Most values lie at the level of the controls, where differences are scatter.

Amino acid sequences for entries named in this document (tags omitted). A change or cut given only in a name is not applied to a line headed by its entry.
UniProt Q0VEJ0: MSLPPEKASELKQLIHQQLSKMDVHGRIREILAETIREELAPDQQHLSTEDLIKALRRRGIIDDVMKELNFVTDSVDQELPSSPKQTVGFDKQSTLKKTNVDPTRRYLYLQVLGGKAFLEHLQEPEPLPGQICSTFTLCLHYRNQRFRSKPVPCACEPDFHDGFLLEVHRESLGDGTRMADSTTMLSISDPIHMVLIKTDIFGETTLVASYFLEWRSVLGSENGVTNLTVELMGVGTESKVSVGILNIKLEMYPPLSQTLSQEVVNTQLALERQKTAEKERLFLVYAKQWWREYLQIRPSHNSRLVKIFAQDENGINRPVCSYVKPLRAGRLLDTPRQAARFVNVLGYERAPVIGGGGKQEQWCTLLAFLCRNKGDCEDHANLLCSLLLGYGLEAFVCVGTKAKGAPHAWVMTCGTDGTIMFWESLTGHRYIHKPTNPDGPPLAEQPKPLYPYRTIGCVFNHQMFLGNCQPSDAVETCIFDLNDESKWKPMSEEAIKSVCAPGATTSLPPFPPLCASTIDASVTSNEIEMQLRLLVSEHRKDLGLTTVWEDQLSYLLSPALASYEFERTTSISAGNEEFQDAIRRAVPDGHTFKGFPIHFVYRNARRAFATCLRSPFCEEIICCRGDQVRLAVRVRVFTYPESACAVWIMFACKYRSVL
UniProt Q3U0B3: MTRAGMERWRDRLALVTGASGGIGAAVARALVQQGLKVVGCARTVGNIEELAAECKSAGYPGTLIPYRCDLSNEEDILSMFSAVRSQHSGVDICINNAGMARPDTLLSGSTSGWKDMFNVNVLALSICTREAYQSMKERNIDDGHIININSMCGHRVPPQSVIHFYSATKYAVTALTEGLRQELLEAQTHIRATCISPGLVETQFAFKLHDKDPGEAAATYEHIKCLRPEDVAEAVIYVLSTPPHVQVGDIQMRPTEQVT
UniProt Q3TEL6: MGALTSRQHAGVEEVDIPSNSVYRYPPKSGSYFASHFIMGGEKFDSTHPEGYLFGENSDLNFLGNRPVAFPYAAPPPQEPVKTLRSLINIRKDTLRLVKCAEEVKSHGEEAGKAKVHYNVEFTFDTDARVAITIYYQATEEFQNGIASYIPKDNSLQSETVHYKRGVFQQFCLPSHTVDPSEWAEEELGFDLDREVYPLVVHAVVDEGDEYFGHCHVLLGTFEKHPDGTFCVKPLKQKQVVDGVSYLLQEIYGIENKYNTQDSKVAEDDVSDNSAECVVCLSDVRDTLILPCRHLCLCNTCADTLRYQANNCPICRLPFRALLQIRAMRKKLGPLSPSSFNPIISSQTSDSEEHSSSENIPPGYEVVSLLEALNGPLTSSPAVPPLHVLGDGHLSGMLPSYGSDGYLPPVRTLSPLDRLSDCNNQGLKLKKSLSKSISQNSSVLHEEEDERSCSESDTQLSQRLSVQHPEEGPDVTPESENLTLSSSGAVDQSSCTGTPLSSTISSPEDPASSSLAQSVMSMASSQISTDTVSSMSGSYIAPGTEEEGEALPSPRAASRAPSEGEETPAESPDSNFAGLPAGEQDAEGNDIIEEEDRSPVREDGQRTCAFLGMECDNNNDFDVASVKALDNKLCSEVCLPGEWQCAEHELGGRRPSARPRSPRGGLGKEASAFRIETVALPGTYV
UniProt Q05512: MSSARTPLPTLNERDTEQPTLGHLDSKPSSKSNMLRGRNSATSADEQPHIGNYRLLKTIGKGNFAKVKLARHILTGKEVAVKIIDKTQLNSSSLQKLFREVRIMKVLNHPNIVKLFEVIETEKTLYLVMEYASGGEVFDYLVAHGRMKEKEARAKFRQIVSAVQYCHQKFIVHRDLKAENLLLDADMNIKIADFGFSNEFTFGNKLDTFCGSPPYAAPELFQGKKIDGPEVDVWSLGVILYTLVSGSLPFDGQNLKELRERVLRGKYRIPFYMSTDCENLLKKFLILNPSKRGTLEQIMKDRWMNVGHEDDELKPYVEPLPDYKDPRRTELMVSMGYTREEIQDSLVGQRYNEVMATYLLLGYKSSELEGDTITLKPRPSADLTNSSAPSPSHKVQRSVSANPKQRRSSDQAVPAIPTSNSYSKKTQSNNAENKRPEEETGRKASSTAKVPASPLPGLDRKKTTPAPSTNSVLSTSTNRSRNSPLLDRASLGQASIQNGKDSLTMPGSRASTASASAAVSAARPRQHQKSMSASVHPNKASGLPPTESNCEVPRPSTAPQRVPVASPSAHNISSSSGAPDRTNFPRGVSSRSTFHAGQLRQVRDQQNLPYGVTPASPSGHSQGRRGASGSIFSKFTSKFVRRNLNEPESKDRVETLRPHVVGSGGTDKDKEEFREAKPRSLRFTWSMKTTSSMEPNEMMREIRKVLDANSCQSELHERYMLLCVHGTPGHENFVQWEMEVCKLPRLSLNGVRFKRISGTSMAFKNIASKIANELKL
UniProt Q283N4: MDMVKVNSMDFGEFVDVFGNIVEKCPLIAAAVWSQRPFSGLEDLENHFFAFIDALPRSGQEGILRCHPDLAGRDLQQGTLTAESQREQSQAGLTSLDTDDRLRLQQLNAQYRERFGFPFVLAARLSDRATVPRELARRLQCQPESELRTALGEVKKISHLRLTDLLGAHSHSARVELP
UniProt Q3TC33: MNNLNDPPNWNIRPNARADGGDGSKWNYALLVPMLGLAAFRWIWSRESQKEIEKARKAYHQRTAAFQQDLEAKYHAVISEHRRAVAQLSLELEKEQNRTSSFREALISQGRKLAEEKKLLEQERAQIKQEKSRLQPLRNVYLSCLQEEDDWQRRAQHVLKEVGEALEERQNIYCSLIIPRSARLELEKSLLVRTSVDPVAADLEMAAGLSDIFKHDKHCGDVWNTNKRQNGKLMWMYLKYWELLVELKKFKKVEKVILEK
UniProt Q2YDW2: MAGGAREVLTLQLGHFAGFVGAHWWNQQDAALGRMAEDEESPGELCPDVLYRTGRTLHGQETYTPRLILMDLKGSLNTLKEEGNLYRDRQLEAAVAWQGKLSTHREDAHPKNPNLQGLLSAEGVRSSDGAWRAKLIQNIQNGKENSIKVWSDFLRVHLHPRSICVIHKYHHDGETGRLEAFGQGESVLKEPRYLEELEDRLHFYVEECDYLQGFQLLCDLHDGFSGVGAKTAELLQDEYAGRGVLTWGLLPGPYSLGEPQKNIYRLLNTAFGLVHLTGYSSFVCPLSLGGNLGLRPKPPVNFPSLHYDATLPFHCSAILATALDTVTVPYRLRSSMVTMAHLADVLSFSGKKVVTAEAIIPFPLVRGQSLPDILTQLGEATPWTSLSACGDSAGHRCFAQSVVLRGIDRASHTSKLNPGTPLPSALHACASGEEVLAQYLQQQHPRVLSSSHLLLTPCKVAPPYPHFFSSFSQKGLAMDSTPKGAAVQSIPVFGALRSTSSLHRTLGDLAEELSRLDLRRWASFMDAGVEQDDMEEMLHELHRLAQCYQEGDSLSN
UniProt Q3TUF7: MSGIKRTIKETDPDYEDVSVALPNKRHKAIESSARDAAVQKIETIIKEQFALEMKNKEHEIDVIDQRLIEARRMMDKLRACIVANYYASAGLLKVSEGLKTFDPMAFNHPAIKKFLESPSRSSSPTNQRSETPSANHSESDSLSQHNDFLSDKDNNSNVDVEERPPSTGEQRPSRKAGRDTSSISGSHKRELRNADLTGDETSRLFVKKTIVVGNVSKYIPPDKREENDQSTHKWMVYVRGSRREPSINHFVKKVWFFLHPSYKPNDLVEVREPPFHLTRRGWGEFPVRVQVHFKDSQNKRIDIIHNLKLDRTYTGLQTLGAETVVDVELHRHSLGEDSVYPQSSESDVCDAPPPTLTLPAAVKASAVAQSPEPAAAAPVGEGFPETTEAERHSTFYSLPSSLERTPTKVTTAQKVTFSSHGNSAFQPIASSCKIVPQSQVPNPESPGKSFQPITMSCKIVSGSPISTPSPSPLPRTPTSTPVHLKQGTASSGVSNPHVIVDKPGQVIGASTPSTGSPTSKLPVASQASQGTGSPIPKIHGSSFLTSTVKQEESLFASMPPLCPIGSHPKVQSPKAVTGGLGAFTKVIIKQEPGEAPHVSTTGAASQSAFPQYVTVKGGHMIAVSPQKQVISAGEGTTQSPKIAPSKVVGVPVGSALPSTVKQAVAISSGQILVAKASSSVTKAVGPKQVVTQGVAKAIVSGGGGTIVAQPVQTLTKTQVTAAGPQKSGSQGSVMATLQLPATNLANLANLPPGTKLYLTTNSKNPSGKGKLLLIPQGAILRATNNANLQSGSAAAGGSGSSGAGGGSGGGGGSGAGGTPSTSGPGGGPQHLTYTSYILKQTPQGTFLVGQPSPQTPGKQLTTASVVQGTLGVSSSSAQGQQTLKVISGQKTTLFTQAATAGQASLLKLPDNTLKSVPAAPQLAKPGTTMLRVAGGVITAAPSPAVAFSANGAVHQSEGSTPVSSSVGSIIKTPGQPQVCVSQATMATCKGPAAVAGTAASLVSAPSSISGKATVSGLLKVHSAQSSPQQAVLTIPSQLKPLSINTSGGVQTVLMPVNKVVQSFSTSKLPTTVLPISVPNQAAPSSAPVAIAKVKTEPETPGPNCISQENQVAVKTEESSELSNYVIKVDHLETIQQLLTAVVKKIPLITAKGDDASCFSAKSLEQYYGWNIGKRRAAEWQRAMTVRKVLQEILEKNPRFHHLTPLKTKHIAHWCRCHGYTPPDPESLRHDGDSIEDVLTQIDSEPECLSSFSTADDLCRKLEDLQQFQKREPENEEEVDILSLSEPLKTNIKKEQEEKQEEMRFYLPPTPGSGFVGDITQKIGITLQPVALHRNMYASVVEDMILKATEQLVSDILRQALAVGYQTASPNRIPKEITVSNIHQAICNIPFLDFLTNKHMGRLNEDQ
UniProt Q3TWF6: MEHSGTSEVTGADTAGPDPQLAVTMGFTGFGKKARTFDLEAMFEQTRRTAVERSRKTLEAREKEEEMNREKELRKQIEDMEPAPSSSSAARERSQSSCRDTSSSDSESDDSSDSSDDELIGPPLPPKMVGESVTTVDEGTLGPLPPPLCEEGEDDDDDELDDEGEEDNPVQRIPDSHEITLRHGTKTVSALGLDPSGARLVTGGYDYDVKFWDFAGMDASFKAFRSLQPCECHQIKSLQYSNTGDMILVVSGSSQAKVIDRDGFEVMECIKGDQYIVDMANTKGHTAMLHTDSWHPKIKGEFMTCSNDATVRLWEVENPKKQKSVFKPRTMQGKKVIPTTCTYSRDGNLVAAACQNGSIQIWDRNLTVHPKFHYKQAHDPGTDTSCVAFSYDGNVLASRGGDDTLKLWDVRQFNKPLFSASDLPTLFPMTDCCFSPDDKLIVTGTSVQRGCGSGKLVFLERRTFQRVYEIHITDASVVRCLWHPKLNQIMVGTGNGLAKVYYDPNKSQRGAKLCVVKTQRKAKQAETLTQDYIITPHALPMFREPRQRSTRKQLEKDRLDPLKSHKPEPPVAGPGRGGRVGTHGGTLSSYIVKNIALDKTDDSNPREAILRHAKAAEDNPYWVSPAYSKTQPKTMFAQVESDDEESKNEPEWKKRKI
UniProt Q3TMW1: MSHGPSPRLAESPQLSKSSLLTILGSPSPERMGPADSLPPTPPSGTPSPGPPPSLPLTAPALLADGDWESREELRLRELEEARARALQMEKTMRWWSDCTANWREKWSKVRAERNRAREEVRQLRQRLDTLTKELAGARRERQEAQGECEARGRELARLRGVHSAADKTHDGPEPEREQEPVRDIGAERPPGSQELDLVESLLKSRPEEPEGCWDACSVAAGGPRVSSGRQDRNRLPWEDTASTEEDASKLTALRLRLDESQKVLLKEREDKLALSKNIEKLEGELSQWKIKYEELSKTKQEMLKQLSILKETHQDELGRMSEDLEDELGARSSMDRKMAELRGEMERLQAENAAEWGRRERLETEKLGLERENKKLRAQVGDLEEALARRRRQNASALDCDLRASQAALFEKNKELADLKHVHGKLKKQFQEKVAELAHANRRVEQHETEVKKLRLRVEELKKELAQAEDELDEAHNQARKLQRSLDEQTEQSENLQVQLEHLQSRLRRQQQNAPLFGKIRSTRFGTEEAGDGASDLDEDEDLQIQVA
UniProt Q3U1Z5: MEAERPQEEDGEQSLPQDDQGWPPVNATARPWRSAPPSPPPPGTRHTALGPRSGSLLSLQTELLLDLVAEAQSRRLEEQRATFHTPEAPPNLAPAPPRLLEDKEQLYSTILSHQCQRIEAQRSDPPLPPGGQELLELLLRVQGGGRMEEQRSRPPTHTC
UniProt Q3TXT3: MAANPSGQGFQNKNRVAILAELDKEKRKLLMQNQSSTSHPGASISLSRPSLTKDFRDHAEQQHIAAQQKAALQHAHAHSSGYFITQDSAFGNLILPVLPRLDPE

compound: CN[C@@H]1C[C@H]2O[C@@](C)([C@@H]1OC)n1c3ccccc3c3c4c(c5c6ccccc6n2c5c31)C(=O)NC4 [staurosporine]; assay: log2 fold change of tryptic peptide abundance, ligand vs vehicle (limited proteolysis) (log2 ratio); higher = more trypsin-susceptible (destabilized); details: ligand concentration: 20 uM; sample: mouse liver crude lysate; replicate design: treated separately

Target	log2 fold change
UniProt Q0VEJ0 (peptide sequence: QLIHQQLSK, peptide start residue: 13)	0.745
UniProt Q3U0B3 (peptide sequence: YAVTALTEGLR, peptide start residue: 171)	0.273
UniProt Q3TEL6 (peptide sequence: YQANNCPICR, peptide start residue: 308)	0.0796
UniProt Q05512 (peptide sequence: TPLPTLNER, peptide start residue: 6)	0.146
UniProt Q283N4 (peptide sequence: CHPDLAGR, peptide start residue: 66)	-0.126
UniProt Q3TC33 (peptide sequence: YHAVISEHR, peptide start residue: 74)	0.355
UniProt Q2YDW2 (peptide sequence: SSMVTMAHLADVLSFSGKK, peptide start residue: 334)	0.445
UniProt Q3TUF7 (peptide sequence: TQVTAAGPQK, peptide start residue: 718)	-0.421
UniProt Q3TWF6 (peptide sequence: KVIPTTCTYSR, peptide start residue: 335)	-0.899
UniProt Q3TMW1 (peptide sequence: IKYEELSK, peptide start residue: 291)	-0.101
UniProt Q3U1Z5 (peptide sequence: ATFHTPEAPPNLAPAPPR, peptide start residue: 81)	0.104
UniProt Q3TXT3 (peptide sequence: LLMQNQSSTSHPGASISLSRPSLTK, peptide start residue: 29)	-0.451

As entered above:
Value of UniProt Q3TXT3 (peptide sequence: LLMQNQSSTSHPGASISLSRPSLTK, peptide start residue: 29) under log2 fold change: -0.451
Value of UniProt Q0VEJ0 (peptide sequence: QLIHQQLSK, peptide start residue: 13) under log2 fold change: 0.745
